The record followed here is paper doi:10.1101/2023.12.01.569363.

Amino acid sequences for entries named in this document (tags omitted).
UniProt P11166: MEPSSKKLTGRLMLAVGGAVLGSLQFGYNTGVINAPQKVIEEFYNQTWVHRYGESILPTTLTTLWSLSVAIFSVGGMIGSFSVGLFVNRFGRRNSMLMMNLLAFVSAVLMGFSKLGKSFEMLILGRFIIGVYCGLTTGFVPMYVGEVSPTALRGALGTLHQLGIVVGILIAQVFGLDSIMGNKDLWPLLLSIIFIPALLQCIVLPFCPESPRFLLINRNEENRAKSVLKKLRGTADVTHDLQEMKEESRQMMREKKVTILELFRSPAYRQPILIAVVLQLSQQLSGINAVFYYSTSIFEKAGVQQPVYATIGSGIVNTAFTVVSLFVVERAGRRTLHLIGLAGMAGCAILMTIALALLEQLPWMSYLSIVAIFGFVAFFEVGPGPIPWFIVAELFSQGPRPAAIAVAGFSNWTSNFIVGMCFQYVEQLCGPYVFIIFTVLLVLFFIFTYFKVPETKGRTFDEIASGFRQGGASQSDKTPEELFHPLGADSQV

Results are given in words; binding and its absence hold for the method and conditions named. Some entries that bind do so weakly or less than the wild type.

The target in the experiment is glucose transporter 1 (human (endogenous in HeLa)) (UniProt P11166). The experiment is described as follows: far-Western, overlay or dot blot.

B1: PURA (protein, UniProt Q00577 1-322)
chain: MADRDSGSEQGGAALGSGGSLGHPGSGSGSGGGGGGGGGGGGSGGGGGGAPGGLQHETQELASKRVDIQNKRFYLDVKQNAKGRFLKIAEVGAGGNKSRLTLSMSVAVEFRDYLGDFIEHYAQLGPSQPPDLAQAQDEPRRALKSEFLVRENRKYYMDLKENQRGRFLRIRQTVNRGPGLGSTQGQTIALPAQGLIEFRDALAKLIDDYGVEEEPAELPEGTSLTVDNKRFFFDVGSNKYGVFMRVSEVKPTYRNSITVPYKVWAKFGHTFCKYSEEMKKIQEKQREKRAACEQLHQQQQQQQEETAAATLLLQGEEEGEED
For B1, the binding entry was “binds”.
